Source: PMC5996148
“And” between values parts separate entries of the source, which are not always exact repeats. Identical values can stand only once. This is one part of the list. For some assays here: The exact form of the protein is not confirmed.

Sequences of proteins named here, by UniProt entry; tags and fusion partners are left off. A change or cut given only in a name is not applied to a line headed by its entry.
UniProt Q8NEY1: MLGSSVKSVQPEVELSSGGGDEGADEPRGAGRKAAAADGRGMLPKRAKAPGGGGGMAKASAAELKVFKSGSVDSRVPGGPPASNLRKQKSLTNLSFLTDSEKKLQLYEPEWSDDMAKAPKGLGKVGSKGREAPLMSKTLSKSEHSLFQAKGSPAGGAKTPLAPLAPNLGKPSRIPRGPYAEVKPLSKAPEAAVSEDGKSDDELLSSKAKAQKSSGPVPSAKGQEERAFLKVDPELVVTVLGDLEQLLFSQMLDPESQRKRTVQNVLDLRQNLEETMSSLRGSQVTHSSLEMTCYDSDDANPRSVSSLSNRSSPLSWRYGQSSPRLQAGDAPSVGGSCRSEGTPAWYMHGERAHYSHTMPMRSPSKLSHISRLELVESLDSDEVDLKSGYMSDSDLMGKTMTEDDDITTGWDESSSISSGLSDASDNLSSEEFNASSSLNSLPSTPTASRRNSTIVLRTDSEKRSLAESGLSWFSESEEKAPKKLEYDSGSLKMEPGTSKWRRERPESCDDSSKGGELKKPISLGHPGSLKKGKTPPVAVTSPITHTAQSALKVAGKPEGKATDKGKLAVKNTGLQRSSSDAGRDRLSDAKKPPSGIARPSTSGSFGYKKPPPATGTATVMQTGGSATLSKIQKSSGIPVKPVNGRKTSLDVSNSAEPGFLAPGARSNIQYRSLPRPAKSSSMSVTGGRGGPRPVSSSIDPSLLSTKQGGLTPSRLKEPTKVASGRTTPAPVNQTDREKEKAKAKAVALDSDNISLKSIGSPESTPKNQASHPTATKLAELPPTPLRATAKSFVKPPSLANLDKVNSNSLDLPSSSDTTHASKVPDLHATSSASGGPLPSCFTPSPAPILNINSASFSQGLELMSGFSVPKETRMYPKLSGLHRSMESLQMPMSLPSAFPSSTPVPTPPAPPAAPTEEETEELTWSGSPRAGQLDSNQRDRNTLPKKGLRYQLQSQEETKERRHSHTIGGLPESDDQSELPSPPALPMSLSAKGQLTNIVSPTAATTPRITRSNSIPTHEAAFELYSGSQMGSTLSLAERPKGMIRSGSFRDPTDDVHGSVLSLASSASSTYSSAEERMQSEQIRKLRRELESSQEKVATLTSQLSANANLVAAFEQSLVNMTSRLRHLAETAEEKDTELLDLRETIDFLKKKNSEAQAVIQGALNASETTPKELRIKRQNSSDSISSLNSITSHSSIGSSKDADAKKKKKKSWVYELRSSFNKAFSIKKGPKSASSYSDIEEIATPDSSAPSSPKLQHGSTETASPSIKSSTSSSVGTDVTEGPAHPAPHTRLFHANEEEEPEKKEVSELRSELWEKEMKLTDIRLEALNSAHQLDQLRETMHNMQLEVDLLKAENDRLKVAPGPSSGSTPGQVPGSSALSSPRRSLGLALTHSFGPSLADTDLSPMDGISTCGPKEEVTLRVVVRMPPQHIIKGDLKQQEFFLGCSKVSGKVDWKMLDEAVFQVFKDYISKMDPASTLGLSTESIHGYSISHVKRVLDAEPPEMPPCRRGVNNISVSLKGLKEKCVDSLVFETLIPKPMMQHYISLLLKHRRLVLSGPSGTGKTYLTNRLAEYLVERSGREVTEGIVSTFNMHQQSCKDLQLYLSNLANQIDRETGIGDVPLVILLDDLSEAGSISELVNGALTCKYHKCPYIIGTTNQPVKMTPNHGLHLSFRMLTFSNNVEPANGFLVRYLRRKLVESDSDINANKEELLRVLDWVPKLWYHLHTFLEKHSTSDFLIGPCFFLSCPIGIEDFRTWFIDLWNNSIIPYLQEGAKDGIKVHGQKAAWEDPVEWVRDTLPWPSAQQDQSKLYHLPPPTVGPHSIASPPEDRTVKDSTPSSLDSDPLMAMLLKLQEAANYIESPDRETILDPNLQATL
UniProt O43676, whole entry: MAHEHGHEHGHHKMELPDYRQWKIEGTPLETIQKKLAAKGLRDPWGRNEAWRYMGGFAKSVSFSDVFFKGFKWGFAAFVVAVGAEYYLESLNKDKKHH

Columns and labels:
Assay in all cases: protein microarray (ProtoArray v5.0), streptavidin-Alexa Fluor 647
Settings in all cases: 3'-biotin; 20 mM Tris (pH 7.5), 5 mM MgCl2, 100 mM KCl, 0.1% Tween-20, A/T-rich and random oligonucleotide blockers; temperature not stated; high values mean tight binding
[1] = test system: Myosin light chain 2, lymphocyte-specific (human)
[2] = test system: Myosin light chain kinase, smooth muscle (human)
NA (human) = test system: NA (human)
NAGK (human) = test system: NAGK (human)
NAPG (human) = test system: NAPG (human)
NAPRT1 (human) = test system: NAPRT1 (human)
NASP (human) = test system: NASP (human)
NAV1 = NAV1 (UniProt Q8NEY1)
NBPF1 (human) = test system: NBPF1 (human)
NBPF22P (human) = test system: NBPF22P (human)
NCBP1 (human) = test system: NCBP1 (human)
NCOA4 (human) = test system: NCOA4 (human)
NDRG4 (human) = test system: NDRG4 (human)
NDUFA4 (human) = test system: NDUFA4 (human)
NDUFA5 (human) = test system: NDUFA5 (human)
NDUFB1 (human) = test system: NDUFB1 (human)
NDUFB3 = NDUFB3 (UniProt O43676)
[3] = test system: NEDD8-activating enzyme E1 catalytic subunit (human)
NETO1 (human) = test system: NETO1 (human)
NFE2 (human) = test system: NFE2 (human)

GGTGACAGGGGTATGGGGAGGGG [G4-2 biotinylated (Ct1)]
binding signal [1]: -0.383 z-score | binding signal [2]: -0.398 z-score | binding signal (NA (human)): 5.69 z-score | binding signal (NAGK (human)): -0.389 z-score | binding signal (NAPG (human)): -0.387 z-score | binding signal (NAPRT1 (human)): -0.389 z-score | binding signal (NASP (human)): -0.39 z-score | binding signal (NAV1): -0.394 z-score | binding signal (NBPF1 (human)): -0.389 z-score | binding signal (NBPF22P (human)): -0.4 z-score | binding signal (NCBP1 (human)): -0.375 z-score | binding signal (NCOA4 (human)): -0.38 z-score | binding signal (NDRG4 (human)): -0.402 z-score and -0.392 z-score | binding signal (NDUFA4 (human)): -0.377 z-score | binding signal (NDUFA5 (human)): -0.398 z-score | binding signal (NDUFB1 (human)): -0.388 z-score | binding signal (NDUFB3): -0.389 z-score | binding signal [3]: -0.391 z-score | binding signal (NETO1 (human)): -0.385 z-score | binding signal (NFE2 (human)): -0.361 z-score
